Source: PubChem BioAssay AID1259405 (NCATS, 2018)
This is an unselected part of about 50,000 deposited reagents. About 4,000 of them (8%) were called active. 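Mouse siRNA library applied to hamster cells; one well for each siRNA.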 Unmarked entries are inactive. The numbers tell different reagents against one gene apart.

- Test: 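Silenced genes that increase secreted GFP made by CHO cells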 (primary screen)
- Cells: Chinese hamster CHO-K1 ovary cells with stable secreted eGFP expression
- Reagents: single siRNA against mouse genes, 0.8 pmol siRNA per well (2 µl of 400 nM stock)
- Duration: 3 days
- Detection: 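Per-well intracellular GFP measured by laser scanning cytometry, plus viability from ATP luminescence, each relative to plate median of non-targeting control wells, in %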
- Direction: GFP, % of control: higher = more GFP per well, higher productivity; viability (ATP), % of control: higher = more viable cells (more ATP)
- Active means: 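Called active when intracellular GFP, relative to negative control, is at or above 120%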

Or4c29 (GeneID 258453) #1 scored GFP, % of control 54.6; viability (ATP), % of control 90.8.
Depletion of Or4c29 (GeneID 258453) #2 came out at: GFP, % of control 107; viability (ATP), % of control 70.8.
Silencing of Or4c29 (GeneID 258453) #3 resulted in: GFP, % of control 58.9; viability (ATP), % of control 90.5.
After knock-down of Or2h15 (GeneID 257889) #1 the results were GFP, % of control 42.8; viability (ATP), % of control 40.2.
Or2h15 (GeneID 257889) #2 gave GFP, % of control 37.2; viability (ATP), % of control 38.1.
Or2h15 (GeneID 257889) #3 showed GFP, % of control 53.8; viability (ATP), % of control 79.1.
After knock-down of Cilk1 (GeneID 56542) #1, the screen gave GFP, % of control 145 (active); viability (ATP), % of control 113.
After knock-down of Cilk1 (GeneID 56542) #2, the screen gave GFP, % of control 90.2; viability (ATP), % of control 87.4.
For Cilk1 (GeneID 56542) #3 the deposit lists GFP, % of control 97.2; viability (ATP), % of control 74.8.
Against Nfu1 (GeneID 56748) #1, the entry reads GFP, % of control 86.1; viability (ATP), % of control 79.4.
Against Nfu1 (GeneID 56748) #2 the deposit lists GFP, % of control 81.8; viability (ATP), % of control 78.1.
Knock-down of Nfu1 (GeneID 56748) #3 came out at: GFP, % of control 111; viability (ATP), % of control 101.
Irx6 (GeneID 64379) #1 showed GFP, % of control 53.9; viability (ATP), % of control 52.9.
Against Irx6 (GeneID 64379) #2 the deposit lists GFP, % of control 38.5; viability (ATP), % of control 53.2.
Silencing of Irx6 (GeneID 64379) #3 came out at: GFP, % of control 87.3; viability (ATP), % of control 104.
Dhrs9 (GeneID 241452) #1 scored GFP, % of control 74.1; viability (ATP), % of control 78.1.
For Dhrs9 (GeneID 241452) #2 the deposit lists GFP, % of control 83.2; viability (ATP), % of control 83.4.
Against Dhrs9 (GeneID 241452) #3, the values are GFP, % of control 88.3; viability (ATP), % of control 79.9.
Silencing of Sarm1 (GeneID 237868) #1 resulted in: GFP, % of control 25.1; viability (ATP), % of control 26.1.
With knock-down of Sarm1 (GeneID 237868) #2, the screen gave GFP, % of control 176 (active); viability (ATP), % of control 95.4.
Knock-down of Sarm1 (GeneID 237868) #3 gave: GFP, % of control 79.1; viability (ATP), % of control 54.7.
Patl2 (GeneID 67578) #1 showed GFP, % of control 88.6; viability (ATP), % of control 88.9.
Patl2 (GeneID 67578) #2 gave GFP, % of control 84.6; viability (ATP), % of control 44.
With knock-down of Patl2 (GeneID 67578) #3 the results were GFP, % of control 74.5; viability (ATP), % of control 87.1.
Gucy1b2 (GeneID 239134) #1 scored GFP, % of control 78.8; viability (ATP), % of control 73.1.
Silencing of Gucy1b2 (GeneID 239134) #2 came out at: GFP, % of control 32.3; viability (ATP), % of control 41.6.
Depletion of Gucy1b2 (GeneID 239134) #3 gave: GFP, % of control 41.9; viability (ATP), % of control 42.2.

2 of these entries in another layout:
| gene | siRNA no. | GFP, % of control | viability (ATP), % of control |
| --- | --- | --- | --- |
| Or2h15 (GeneID 257889) | 1 | 42.8 | 40.2 |
| Or2h15 (GeneID 257889) | 2 | 37.2 | 38.1 |
